The target in this test is C-terminal 3×FLAG-tagged 1700029I15Rik (mouse). Description: co-IP.

Results are given in words; binding and its absence hold for the method and conditions named. Binding seen in cells or lysates may run through a third protein. Binding can be weak; no strength is given.

B1: SPPL2C (recombinant, expressed in HEK293T cells) (protein, UniProt A2A6C4 29-690)
chain: EYGLVRVVSKNWSKDYCVLYSSDYVNLPRDLHHAPLLSLHDGTKTPWCPDEDSFHQAQDSSPRQRPLHQTTTMVTRGNCSFYAKGWLAQDQGAQGLLIVSRARNQQCSDTISKPQDPSKPWPALTIPVAVLRYTDMLDIVSHTYGDTDVRVAMFAPLEPVTDYNMAIIFILAVGTVAAGGYWAGLMEANKLQRRQAQRGGGLGGHNQQQTVAAERSQRAWEDDDFEDAPMDFTPAMTGAVVTMSCSIMILLYFFYDCFVYVMIGIFSLGASTGLYSCLAPILCHLPLWRYQWVLPGQRVSVTWPLLLLAGLCAMVTVLWVIHRNEDHWAWLLQDTLGVAYCLFVLRRVRLPTFKNCTLFLLALLAFDVFFVFITPLFTKTGESIMVEVASGPADSSSHERLPMVLKVPRLSFSALTLCNQPFSILGFGDIVVPGFLVAYCHRFDMQVQSRQVYYMACTVAYAVGLLVTFVAMILMQMGQPALLYLVSSTLLTSLAVATCRQEFTLFWTGQGRAKIPAEPVAQPCIASAVGSKMKLEDAKDSRTTNRFEQAVDGESGDLESSTGDDMAEMVTLSEDEATSPEGHSESSEGWSDTNLDPNELPSGSPMALEAMLIPLIQPIPHPSELGHIRTQSRVHDSSLPWMGLHKRKGLKVKKSMSAQAPL
As to B1, the binding result is “binds”.

For the origin of these results see article doi:10.1101/2022.04.15.488448.
